{"source": "PubChem BioAssay AID996", "about": "(National Center for Advancing Translational Sciences (NCATS), 2007)", "molecular_target": "Caspase-1 (Homo sapiens) (UniProt P29466)", "experiment": "Concentration-Response Counterscreen for Redox Active Inhibitors of Caspase-1: Summary", "details": "caspase-1 enzyme activity, redox counterscreen (DTT/Cys/catalase)", "excerpt": "NIH Molecular Libraries Screening Centers Network [MLSCN]\nNIH Chemical Genomics Center [NCGC]\nPI Name: Dr. James Wells,\nDr. Enrique Perez-Paya, Dr.Janice Williams, Dr. Dennis Wolan, a person\nThe caspases (Cysteine Aspartyl Protease) comprise a related family of 14 dimeric proteases that are critical mediators of apoptosis (programmed cell death) and inflammation. The caspases represent an important class of drug targets for stroke, ischemia, cancer and inflammatory diseases. […] One goal of this project was to identify compounds that act as allosteric inhibitors via stabilizing the procaspase form of the enzyme. Previous work in Well's laboratory has shown that such allosteric inhibitors can be identified and these act by binding at the dimer interface of enzyme (Hardy, Lam et al., 2004).\nThe biochemical assay was configured using purified caspase 1 at a high enzyme concentration to promote formation of the homodimers and thus facilitate the identification of allosteric inhibitors. The overall goal was to identify reversible inhibitors with better drug-like properties than the currently available set of aspartyl-containing peptidomimetics that covalently bind the active site. Caspase 1 was assayed using the profluorescent substrate Ac-WEHD-AFC. After initiation of the assay with substrate the plates were rapidly read using an automated robotic system (Kalypsys, Inc.) to maintain consistent timing. A kinetic mode of detection was used where the initial rate was collected (estimated final product formation was ~10%). Product formation was also measured after 1 hour. Compounds were screened as a concentration-titration series that ranged from 57 uM to 0.7 nM.\nCompounds that generate reactive oxygen species can lead to high hit rates in HTS biochemical assays. This mechanism was cited by Smith et al. (2002) as the main artifact responsible for >85% of the hits in an HTS against caspase 8. We identified a series of putative inhibitors in an enzymatic screen of caspase 1 and we performed two assays to test if these compounds operated by such a redox-active mechanism. Based on the published work, compounds that appear active due to a redox-active mechanism will show shifts in inhibition potency when the redox potential of the buffer is changed. Compounds that show a change in IC50 upon switching the buffer system from DTT to cysteine or DTT and the enzyme catalase are suspected to be redox active compounds.\nNCGC Assay Protocol Summary:\nCaspase 1 was prepared in buffer (50 mM HEPES pH 7.5, 50 mM KCl, 200 mM NaCl, 0.1% CHAPS and either 10 mM DTT, 10 mM Cys (Aldrich cat# 861677), or 10mM DTT and 50 units/well catalase (from bovine liver, Sigma cat#100)) at a concentration of 66.6 nM and 3 uL was dispensed to all wells using black solid Kalypsys 1536-well plates. 20 nL of DMSO containing compounds was added using a pin-tool (Kalypsys Inc.) to columns 5-48. Then 20 nL of DMSO solution from a control plate was added to columns 1-4. Controls were: Column 1, 16 point titration with each concentration in duplicate (1:1 dilutions in DMSO; final starting concentration was 57 uM) of the caspase 1 inhibitor Ac-WEHD-CHO (Alexis Biochemicals); Column 2, a 16 point titration with each concentration in duplicate of the free AFC fluorophore prepared in DMSO (Alexis Biochemicals), final starting was 40 uM; Column 3 neutral (DMSO only) control; Column 4: DMSO alone, to serve as a negative control (no substrate was added). Then 1 uL of 20 uM the substrate Ac-WEHD-AFC (Alexis Biochemicals) prepared in the same buffer was dispensed to all wells except columns 2 and 4 and the plates were immediately transferred (< 1 min) to the Viewlux. The plates were then exposed using 405 nm excitation/520 nm emission filters for 4 sec and read at 20 sec intervals for 3 min. Final enzyme concentration was 50 nM and the final substrate concentration was 5 uM.\n[…]", "key": {"[1]": {"details": "measured here: with catalase, rate"}}, "note": "The other results are listed elsewhere or left out. These are further read-outs of the screen, such as a control signal, another cell line or another target. No call is given for them. Words in brackets tell the shape of the fitted curve; partial curves, single points and poor fits give uncertain potencies.", "data": [{"smiles": "COc1cc2c(Cc3c4c5c(cc(OC)c(OC)c5c5c(OC)c(OC)ccc35)CCN4C)c3c4c(cc(OC)c(OC)c4c2cc1OC)CCN3C", "values": [{"measurement": "AC50", "setting": "measured here: DTT 1 h read", "result": "12.6 µM [falling, partial curve]"}, {"measurement": "AC50", "setting": "measured here: DTT rate", "result": "31.6 µM [falling, partial curve]"}, {"measurement": "AC50", "setting": "measured here: cysteine rate", "result": "25.1 µM [falling, partial curve]"}]}, {"smiles": "COc1ccc2c(c1)Cc1sc(NC(=O)c3cccs3)nc1-2", "values": [{"measurement": "AC50", "setting": "measured here: DTT 1 h read", "result": "25.1 µM [falling, partial curve]"}, {"measurement": "AC50", "setting": "[1]", "result": "31.6 µM [falling, partial curve]"}]}, {"smiles": "CC(=O)[C@@H]1[C@@H]2C(=O)N(c3ccc(F)c(Cl)c3)C(=O)[C@@H]2C2c3ccccc3C=CN21", "note": "(stereo not given in full)", "values": [{"measurement": "AC50", "setting": "measured here: DTT 1 h read", "result": "31.6 µM [falling, partial curve]"}, {"measurement": "AC50", "setting": "measured here: cysteine rate", "result": "15.8 µM [falling, partial curve]"}, {"measurement": "AC50", "setting": "[1]", "result": "31.6 µM [falling, partial curve]"}]}, {"smiles": "COc1cc(N[C@@H](C)CCCN)c2ncccc2c1", "values": [{"measurement": "AC50", "setting": "measured here: DTT 1 h read", "result": "31.6 µM [falling, partial curve, poor fit]"}]}, {"smiles": "O=C1C(SCCO)=C(SCCO)C(=O)c2ccccc21", "values": [{"measurement": "AC50", "setting": "measured here: DTT 1 h read", "result": "39.8 µM [falling, partial curve]"}]}, {"smiles": "[C-]1=CC=CC1.[C-]1=CC=CC1.[Cl-].[Cl-].[Ti+4]", "values": [{"measurement": "AC50", "setting": "measured here: DTT 1 h read", "result": "15.8 µM [falling, partial curve]"}, {"measurement": "AC50", "setting": "measured here: DTT rate", "result": "25.1 µM [falling, partial curve]"}, {"measurement": "AC50", "setting": "measured here: cysteine 1 h read", "result": "20 µM [falling, partial curve, poor fit]"}]}, {"smiles": "O=C1NCCCC2c3cc(O)c4ccccc4c3OC12N1CCCCC1", "note": "(stereo not given)", "values": [{"measurement": "AC50", "setting": "measured here: DTT 1 h read", "result": "31.6 µM [falling, partial curve]"}]}, {"smiles": "CCN1C(=O)/C(=C2/Sc3ccccc3N2CCCS(=O)(=O)O)SC1=S", "values": [{"measurement": "AC50", "setting": "measured here: DTT rate", "result": "12.6 µM [falling, partial curve]"}, {"measurement": "AC50", "setting": "measured here: cysteine rate", "result": "15.8 µM [falling, full curve]"}, {"measurement": "AC50", "setting": "[1]", "result": "28.2 µM [falling, partial curve]"}]}, {"smiles": "O=C(COC(=O)c1cc(-c2ccco2)nc2ccccc12)NCc1ccc2c(c1)OCO2", "values": [{"measurement": "AC50", "setting": "measured here: DTT rate", "result": "25.1 µM [falling, partial curve]"}, {"measurement": "AC50", "setting": "measured here: cysteine rate", "result": "15.8 µM [falling, full curve]"}, {"measurement": "AC50", "setting": "[1]", "result": "25.1 µM [falling, partial curve]"}]}]}
